The supplement of paper PMC7666118
The list shows a part of the results.

molecular target: T1, STX2 (UniProt P32856); test: dose-dependent thermal stabilisation call (2D-TPP, DLPTP, 10% FDR) (binary (1 = stabilised)); higher = stabilised by the compound; settings: system: HL-60 intact cells; concentration range 0.04-10 µM
T1 sequence (whole entry): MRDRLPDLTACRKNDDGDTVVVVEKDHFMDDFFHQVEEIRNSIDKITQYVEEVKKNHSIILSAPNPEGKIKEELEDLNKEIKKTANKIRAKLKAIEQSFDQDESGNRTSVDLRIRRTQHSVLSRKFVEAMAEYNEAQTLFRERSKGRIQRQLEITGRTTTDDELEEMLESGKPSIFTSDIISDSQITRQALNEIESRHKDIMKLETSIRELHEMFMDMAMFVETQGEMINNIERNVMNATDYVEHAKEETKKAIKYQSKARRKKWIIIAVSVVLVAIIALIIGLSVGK
Method: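 2D thermal proteome profiling in intact HL-60 cells treated with BRD-3811 (0, 0.04, 0.29, 2, 10 uM) for 90 min at 37 C, then heated 3 min at one of 12 temperatures (42-63.9 C). Soluble protein was quantified by TMT10 MS. The value is the DLPTP call of the paper: dose-dependent thermal stabilisation over all temperatures at 10% FDR (F-test of a dose-response against a flat model); one experiment, one call per tested protein.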

Row | SMILES | dose-dependent thermal stabilisation call
1 | COc1ccc(Cn2ccc3cc(C)c(C(=O)NO)cc32)cc1 | inactive: 0
